This assay can be described thus: qHTS Assay for Lipid Storage Modulators in Drosophila S3 Cells.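 As to cell number change: cells counted by Cell Tracker Red CMTPX staining in the red channel.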 Conditions: BODIPY lipid droplet fluorescence, 18-24 h; for cell number change: measured here: cell count max response, cells fed with added oleic acid. The gist of the method:
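Drosophila S3 cells loaded with oleic acid (400 uM, as added) and compounds at several concentrations; lipid droplets imaged by 488-nm laser-scanning cytometry, 500–530 nm intensity and object ratio to cell channel. Percent activity normalized to 20 uM Triacsin C.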

The mark [1] stands for this setting: measured here: cell number channel AC50, cells fed with added oleic acid.
Setting [2] is: measured here: lipid fluorescence (Fed channel) AC50, cells fed with added oleic acid.

Here are results for 59 compounds from PubChem BioAssay AID2685 (National Center for Advancing Translational Sciences (NCATS), 2010).

The list shows a part of the results. Further columns of the screen follow, without active or inactive calls. The list favours compounds with an active or inconclusive main result. Words in brackets tell the shape of the fitted curve; partial curves, single points and poor fits give uncertain potencies.

In the case of `Cc1csc(-c2cnn(-c3ccccc3)c2NC(=O)c2cccc(C(F)(F)F)c2)n1`, the cell number change worked out at 27.6%. Usually AC50 stands for the concentration at which the activity in the assay is half-maximal. Read a low AC50 as activity at low concentration. Regarding `FC(F)(F)c1cnc(-c2cnc(-c3ccccn3)nc2)c(Cl)c1`, the cell number change amounted to 73.5%. In addition, the AC50 under setting [1] is 29.1 µM [rising, single point]. In addition, the AC50 under setting [2] was 29.1 µM [rising, single point]. Consider `O=C(Nc1cccc(NC(=O)c2ccccc2Cl)c1)c1cccs1`, for which the cell number change is -48.6%. Moreover, the AC50 under setting [1] was 20.6 µM [falling, partial curve, poor fit]. Moreover, under setting [2], the concentration at half-maximal activity (AC50) was 0.0058 µM [falling, full curve, poor fit]. Take `CCN(CC(=O)O)S(=O)(=O)c1cc(Cl)ccc1Cl`: the cell number change was determined as 2.42%.

Take `COCCNS(=O)(=O)c1cccc2cccnc12`: the cell number change turned out to be 0.451%. Besides, the AC50 under setting [2] is 6.51 µM [falling, single point]. Regarding `Cc1oc(-c2ccccc2Cl)nc1CS(=O)(=O)CC(=O)NCCN1CCOCC1`, the cell number change was 4.61%. Also, the half-maximal activity concentration (AC50) under setting [2] was 0.259 µM [rising, full curve, poor fit]. For the compound `O=C1N(c2ccccc2C(F)(F)F)O[C@@]1(c1ccccc1)C1CCCCC1`, the cell number change was -31.5%. In addition, the AC50 under setting [1] is 1.03 µM [falling, full curve, poor fit]. Further, the half-maximal activity concentration (AC50) under setting [2] was 1.03 µM [falling, full curve, poor fit]. For the compound `Cc1nonc1NC(=O)CSc1nc2c(C)cccc2cc1C#N`, the concentration at half-maximal activity (AC50) under setting [2] was 4.61 µM [rising, single point].

As to `O=C(CCC(=O)N1CCOCC1)NCCc1ccccc1`, the cell number change was found to be 1.93%. Besides, the AC50 under setting [2] was 16.4 µM [rising, single point]. For `Clc1ccc2[nH]c3c(NCCN4CCOCC4)ncnc3c2c1`, the concentration at half-maximal activity (AC50) under setting [1] was 1.84 µM [rising, partial curve] and the concentration at half-maximal activity (AC50) under setting [2] was 0.731 µM [rising, single point]. On to `CCOC(=O)Cc1csc(NC(=O)C2CCCN(S(=O)(=O)c3cnc[nH]3)C2)n1` (configuration not stated), for which the cell number change was 51.1%. Also, the concentration at half-maximal activity (AC50) under setting [1] was 32.6 µM [rising, single point]. Regarding `Cc1ccc(C(=O)NCCSCc2ccccc2)cc1[N+](=O)[O-]`, the cell number change came to 34.3%. The concentration at half-maximal activity (AC50) under setting [1] is 16.4 µM [rising, partial curve, poor fit]. In addition, the AC50 under setting [2] is 0.116 µM [rising, full curve, poor fit]. On to `C/C(=N/N1CCN(c2ccccn2)CC1)c1cccc([N+](=O)[O-])c1`, for which the cell number change was -1.41%. As to `O=C(NN=C1CCCCC1)c1ccccc1-n1cccc1`, the cell number change came to 28.2%. The AC50 under setting [2] was 35.5 µM [rising, partial curve]. `CC(C)(C)N(Cc1nc(-c2ccccc2)no1)C(=O)c1ccc2c(c1)OCO2`: the cell number change was found to be 7.14%. The AC50 under setting [2] is 6.51 µM [rising, single point]. Regarding `Cc1ccnc(NC(=O)Cn2cc([N+](=O)[O-])cn2)c1`, the cell number change was -26.4%. For the same compound, the concentration at half-maximal activity (AC50) under setting [1] is 0.116 µM [falling, full curve, poor fit]. Also, the half-maximal activity concentration (AC50) under setting [2] was 0.206 µM [falling, full curve].

Regarding `Cc1ccc(/C(O)=C/c2nc3ccccc3oc2=O)cc1`, the cell number change is -4.7%. Same read-out and setting: the result for `COc1ccc(C2N(c3cc(Cl)ccc3OC)C(=O)C3CCCN32)c(OC)c1` (configuration not stated) reads -18.5%. Consider `Cc1ccc(-n2nnnc2SCC(=O)Nc2ccc(N3CCN(C)CC3)cc2)c(C)c1`, for which the cell number change is 32.7%. The half-maximal activity concentration (AC50) under setting [1] is 29.1 µM [rising, single point]. Besides, the AC50 under setting [2] is 18.4 µM [rising, partial curve]. On to `O=C(Nc1cccc(-c2ccc(N3CCCCC3)nn2)c1)c1ccco1`, for which the half-maximal activity concentration (AC50) was 0.411 µM [rising, full curve] under setting [1] and 0.92 µM [rising, partial curve] under setting [2]. On to `CCOc1ccc(CCNC(=O)CN2CCN(Cc3ccccc3F)C2=O)cc1OCC`, for which the cell number change is -26.3%. In addition, the AC50 under setting [2] is 23.1 µM [falling, partial curve, poor fit]. On to `Cc1ccc(C)c(OCC(=O)NC2CCCCCC2)c1`, for which the cell number change is -23.8%. Under setting [2], the AC50 is 29.1 µM [falling, single point]. As for `COC(=O)c1[nH]c2ccc(F)cc2c1NC(=O)CCN1CCN(Cc2ccc3c(c2)OCO3)CC1`, the cell number change was -24.6%. The concentration at half-maximal activity (AC50) under setting [2] was 0.366 µM [rising, partial curve].

As to `COc1ccc(-c2noc(CNC(=O)c3ccc4c(c3)OCO4)n2)cc1`, the cell number change came to 33.6%. The concentration at half-maximal activity (AC50) under setting [1] is 0.00517 µM [rising, full curve, poor fit]. Moreover, under setting [2], the half-maximal activity concentration (AC50) is 29.1 µM [rising, single point]. `CNCCCNC(=O)c1ccc(/C=N/O)nc1`: the cell number change was 5.49%. Further, the AC50 under setting [1] is 6.51 µM [falling, single point]. For the compound `O=C(CCS(=O)(=O)c1cccc2nonc12)Nc1ccc(Br)cc1`, the cell number change amounted to 25.2%. Also, under setting [2], the AC50 was 0.58 µM [falling, single point]. With `CCn1c(=O)c(C)nn2c3ccccc3nc12`, under setting [1], the AC50 was 1.3 µM [rising, full curve]. As to `O=C(Nc1ccc(Cc2ccncc2)cc1)c1ccc(S(=O)(=O)N2CCCC2)cc1`, the cell number change was -11.2%. Besides, under setting [2], the AC50 was 2.06 µM [rising, partial curve]. Consider `NC(=O)c1ccccc1OCCOc1ccc(Br)cc1`, for which the cell number change was determined as 8.82%. Besides, the AC50 under setting [2] is 6.51 µM [rising, single point].

As for `O=C(O)c1cccc(C(=O)O)c1Br`, the cell number change was determined as 4.53%.

For `Cc1cccc(C(=O)OCC(=O)c2ccc3c(c2)OCO3)c1O`, the cell number change is -38.1%. Moreover, the concentration at half-maximal activity (AC50) under setting [1] was 29.1 µM [falling, single point]. The AC50 under setting [2] is 29.1 µM [falling, single point]. In the case of `CN(C(=O)CC1C(=O)NCCN1Cc1ccc(F)c(F)c1)C1CCCCC1` (configuration not stated), the cell number change is 4.53%. Also, the concentration at half-maximal activity (AC50) under setting [1] is 1.16 µM [rising, full curve, poor fit]. For the compound `O=C(NC1CCCC1)C(c1ccncc1)N(Cc1ccccc1)C(=O)c1ccc(-c2ccccc2)[nH]1` (configuration not stated), the cell number change was -7.33%. The AC50 under setting [2] is 9.2 µM [rising, partial curve]. With `Cc1ccccc1NC1=C(Cl)C(=O)OC1OC(=O)c1ccco1` (configuration not stated), the cell number change is -4.63%. Regarding `Clc1ccc(-c2nc3ccccc3n2OCc2ccccc2)cc1`, the cell number change was -35.6%. The AC50 under setting [1] is 29.1 µM [falling, single point]. Moreover, the AC50 under setting [2] is 5.8 µM [falling, full curve]. For the compound `CCOC(=O)N1CCN(S(=O)(=O)c2ccc(OCC)c(C)c2)CC1`, the concentration at half-maximal activity (AC50) under setting [2] was 0.58 µM [rising, single point]. Take `O=C(CNC(=O)OCc1ccccc1)NC1CCCCCCC1`: the cell number change is -4.24%. Also, the AC50 under setting [2] is 5.17 µM [rising, single point].

For `Cc1cccc(C)c1NC(=O)CNC(=O)c1ccc(COc2ccccc2)cc1`, the cell number change was -47.4%. Besides, under setting [1], the AC50 was 32.6 µM [falling, partial curve, poor fit]. Besides, the half-maximal activity concentration (AC50) under setting [2] is 0.231 µM [falling, full curve]. Regarding `CSc1ccccc1NC(=O)CN(C)Cc1cccc(Cl)c1`, the cell number change turned out to be 52.6%. Also, under setting [1], the half-maximal activity concentration (AC50) was 29.1 µM [rising, single point]. Moreover, the AC50 under setting [2] was 29.1 µM [rising, partial curve, poor fit]. With `CN(C)C(CNC(=O)CCc1nc2ccccc2s1)c1ccccc1` (configuration not stated), the cell number change is 20.2%.

On to `CCCCNS(=O)(=O)c1ccc2nc(SCC(N)=O)[nH]c2c1`, for which the cell number change was -13.9%. Consider `O=C1Nc2ccccc2C12OCCO2`, for which the cell number change worked out at 1.57%. Further, the concentration at half-maximal activity (AC50) under setting [2] is 0.291 µM [falling, full curve, poor fit].

As to `COc1ccccc1N1CCN(C(=O)CSc2ccc3c(C)cc(C)nc3n2)CC1`, the cell number change turned out to be 3.22%. Besides, the AC50 under setting [2] was 5.8 µM [rising, partial curve, poor fit].

In the case of `COc1ccccc1N1CCN(CC(=O)N2N=CCC2c2ccccc2)CC1` (configuration not stated), the AC50 under setting [1] is 2.91 µM [rising, single point] and the AC50 under setting [2] was 29.1 µM [falling, single point].

`COCC(=O)N1CCC(Oc2ccc(C(=O)NCc3cc(C(C)C)no3)cc2)CC1`: the cell number change is -16.1%. For the same compound, under setting [2], the AC50 was 0.366 µM [falling, partial curve, poor fit]. On to `CSc1nc2nc3c(c(=O)n2[nH]1)CN(Cc1ccccc1)CC3`, for which the cell number change is -27.9%. For the same compound, the AC50 under setting [2] is 9.2 µM [falling, partial curve]. Consider `Cc1ccc(C(C)NC(=O)c2ccc3c(c2)OCCO3)cc1C` (configuration not stated), for which the cell number change was 1.17%.

For the compound `CCN(CC)C(=O)CSc1nnc(-c2cccnc2)n1CCc1ccccc1`, the cell number change is -32%. Also, under setting [1], the concentration at half-maximal activity (AC50) is 0.058 µM [falling, full curve, poor fit]. Turning to `CC12CCC(C(=O)NNC(=O)c3ccccc3)(OC1=O)C2(C)C` (configuration not stated), the cell number change was -10%. Consider `CC(C)(C)OC(=O)N1CCC(CNC(=O)c2ccc(F)cc2)CC1`, for which the cell number change was -47.7%. For the same compound, under setting [1], the concentration at half-maximal activity (AC50) was 18.4 µM [falling, single point]. For the same compound, the AC50 under setting [2] is 23.1 µM [falling, partial curve]. On to `Cn1cccc1C(=O)Nc1nc(-c2ccccn2)cs1`, for which the cell number change worked out at 3.22%. The same measure, in the same setting: the value for `Cc1ccc(-c2nnc(SCC(=O)Nc3ccc(S(=O)(=O)N4CCCCCC4)cc3)o2)cc1` was -14%.

For `O=C(N/N=C/c1ccccc1)C(=O)N/N=C/c1ccccc1`, the cell number change came out at 18.5%. Under setting [2], the AC50 was 5.17 µM [rising, full curve]. Consider `Cn1c(=N)c(S(=O)(=O)c2ccccc2)cc2c(=O)n3ccccc3nc21`, for which the AC50 reads like this: under setting [1], 0.366 µM [rising, full curve]; under setting [2], 0.259 µM [rising, full curve, poor fit].

For `Cc1nc2c(ccc3nc(NC(=O)C(c4ccccc4)c4ccccc4)sc32)s1`, the cell number change is -82.8%. For the same compound, under setting [1], the AC50 was 18.4 µM [falling, partial curve]. Moreover, under setting [2], the AC50 is 18.4 µM [falling, single point].

As for `COc1cc(/C=C/C(=O)OCC(=O)NC(=O)NC(C)(C)C)cc(OC)c1OC`, the cell number change was -24.7%. Besides, under setting [1], the half-maximal activity concentration (AC50) was 0.0206 µM [falling, full curve, poor fit]. Moreover, the half-maximal activity concentration (AC50) under setting [2] was 0.103 µM [falling, full curve, poor fit].

As for `COc1cccc(Nc2nc(-c3sc(NC(=O)CC(C)C)nc3C)cs2)c1`, the cell number change was -35.4%. In addition, the concentration at half-maximal activity (AC50) under setting [1] was 7.31 µM [falling, full curve, poor fit]. Moreover, the AC50 under setting [2] is 7.31 µM [falling, full curve, poor fit]. Take `CCCC(=O)Nc1nn(CC)c2nc3ccc(C)cc3cc12`: the cell number change was 17.6%. Moreover, under setting [2], the AC50 was 1.64 µM [rising, full curve, poor fit]. `CC1CC(c2ccccc2)n2nc(NC(=O)c3ccco3)nc2N1` (configuration not stated): the cell number change is -0.144%. Also, under setting [2], the half-maximal activity concentration (AC50) is 20.6 µM [falling, partial curve].
